Measurements as given in US20170189409A1, “MEDICAL USE” (Almirall, S.A., priority 2014, published 2017).
At least one compound was matched to its structure with a doubt left.

Tested on: autoantibody-mediated cutaneous lesions
Test: Immunization-induced mouse model of epidermolysis bullosa acquista (EBA)
Format: in vivo, B6.SJL-H2s mice
Conditions: 6 week treatment; LAS191954 orally 3 mg/kg/day, methylprednisolone orally 20 mg/kg/day; versus vehicle
Procedure: Induction of experimental EBA was performed as described in […] et al., J Immunol. 2013; 191:2978-2988. Briefly, 6-10 week B6.SJL-[…] mice were immunized with an emulsion of a recombinant protein encompassing the vWFA2 binding domain of mouse type VII collagen (COL7) in adjuvant (Titermax). After immunization, mice were weekly evaluated for the presence and extend of clinical disease, measured as percentage of body surface affected by skin lesions (erythema, blisters, erosions and crusts). […] Treatments were carried out over a 6-week period, and mice were evaluated for the extend of clinical disease (primary endpoint) weekly. […] For better comparability between experiments, the affected body surface area at weeks 1-6 was related to that at inclusion (set at 1). Body weight was monitored weekly during treatment.

C[C@H]1C[C@@H]2[C@H]([C@@H](O)C[C@@]3(C)[C@H]2CC[C@]3(O)C(=O)CO)[C@@]2(C)C=CC(=O)C=C12 [Methylprednisolone, reference compound]
clinical severity (body surface area affected by skin lesions relative to score at inclusion): modestly reduced clinical severity
